These are yes or no findings as the source states them, for the method shown. In cells and extracts the contact can be indirect. Some binding calls cover weakened binding; strength is not graded here. For some assays here: Where a sequence is shown, tags or fusion partners need not be part of it.
B1: His-RBM38 (protein, UniProt Q9H0Z9 1-239)
chain: MLLQPAPCAPSAGFPRPLAAPGAMHGSQKDTTFTKIFVGGLPYHTTDASLRKYFEGFGDIEEAVVITDRQTGKSRGYGFVTMADRAAAERACKDPNPIIDGRKANVNLAYLGAKPRSLQTGFAIGVQQLHPTLIQRTYGLTPHYIYPPAIVQPSVVIPAAPVPSLSSPYIEYTPASPAYAQYPPATYDQYPYAASPATAASFVGYSYPAAVPQALSAAAPAGTTFVQYQAPQLQPDRMQ
B2: endogenous RBM38 (protein, UniProt Q9H0Z9 1-239)
chain: B1 chain

By UniProt entry, the sequences of proteins in these tests, tags left out.
UniProt O60573: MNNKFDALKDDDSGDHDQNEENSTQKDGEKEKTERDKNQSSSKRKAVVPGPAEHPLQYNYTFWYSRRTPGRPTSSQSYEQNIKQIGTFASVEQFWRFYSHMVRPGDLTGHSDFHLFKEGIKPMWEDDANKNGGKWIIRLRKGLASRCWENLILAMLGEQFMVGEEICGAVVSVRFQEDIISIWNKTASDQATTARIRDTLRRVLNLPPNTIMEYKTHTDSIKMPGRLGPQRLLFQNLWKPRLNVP

Tests used:
GST-eIF4E2 = GST-eIF4E2 (UniProt O60573); assay: pull-down
[1] = molecular target: endogenous eIF4E2 (not stated (endogenous, cell line not named)) (UniProt O60573); assay: co-IP

Binder	binding (GST-eIF4E2)	binding [1]
B1	binds	–
B2	–	binds
